The target in this test is recombinant human FAMIN (FAMIN^254I) (human) (UniProt Q8IV20). The test can be described thus: SEC; Superdex 200 Increase 10/300 of Strep-Tactin purified FAMIN after TEV cleavage of the Strep-tag; fractions checked by Coomassie SDS-PAGE; both purified.

Results are given in words; binding and its absence hold for the method and conditions named.

B1: recombinant human FAMIN (FAMIN^254I) (enzyme, UniProt Q8IV20 1-430)
chain: MAEAVLIDLFGLKLNSQKNCHQTLLKTLNAVQYHHAAKAKFLCIMCCSNISYERDGEQDNCEIETSNGLSALLEEFEIVSCPSMAATLYTIKQKIDEKNLSSIKVIVPRHRKTLMKAFIDQLFTDVYNFEFEDLQVTFRGGLFKQSIEINVITAQELRGIQNEIETFLRSLPALRGKLTIITSSLIPDIFIHGFTTRTGGISYIPTLSSFNLFSSSKRRDPKVVVQENLRRLANAAGFNVEKFYRIKTHHSNDIWIMGRKEPDSYDGITTNQRGVTIAALGADCIPIVFADPVKKACGVAHAGWKGTLLGVAMATVNAMIAEYGCSLEDIVVVLGPSVGPCCFTLPRESAEAFHNLHPACVQLFDSPNPCIDIRKATRILLEQGGILPQNIQDQNQDLNLCTSCHPDKFFSHVRDGLNFGTQIGFISIKE
Regarding B1, the binding result is reported as “no binding”.

These data come from article PMC6978800, “FAMIN Is a Multifunctional Purine Enzyme Enabling the Purine Nucleotide Cycle” (Cell, 2020).
